# At least one structure is not confirmed: it was looked up by name or label, or the drawing left a doubt.
# Settings: PBS pH 7.4 without TXA, with TXA 0.05 mg/mL or 5 mg/mL, over 25 hours
compound,measurement,value
CN(C)c1ccc(O)c2c1C[C@H]1C[C@H]3[C@H](N(C)C)C(O)=C(C(N)=O)C(=O)[C@@]3(O)C(O)=C1C2=O [minocycline],elution rate from p22-27.5 polymer,not affected by the presence of TXA

# — patent US12168086B2, “Hemostatic devices and methods of use” (priority 2016, dated 2024)
